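Primary screen of methionyl-tRNA synthetase; the read-out is not stated. Target: Methionyl-tRNA synthetase (putative), Leishmania donovani (UniProt E9BF75). The test concentration is not given. Values are per cent inhibition. About 68,000 compounds were tested under these conditions; 0.035% (about 24) showed 50% or more at least once.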

By UniProt entry, the sequences of proteins in these tests, tags left out.
UniProt E9BF75, entry or part of it: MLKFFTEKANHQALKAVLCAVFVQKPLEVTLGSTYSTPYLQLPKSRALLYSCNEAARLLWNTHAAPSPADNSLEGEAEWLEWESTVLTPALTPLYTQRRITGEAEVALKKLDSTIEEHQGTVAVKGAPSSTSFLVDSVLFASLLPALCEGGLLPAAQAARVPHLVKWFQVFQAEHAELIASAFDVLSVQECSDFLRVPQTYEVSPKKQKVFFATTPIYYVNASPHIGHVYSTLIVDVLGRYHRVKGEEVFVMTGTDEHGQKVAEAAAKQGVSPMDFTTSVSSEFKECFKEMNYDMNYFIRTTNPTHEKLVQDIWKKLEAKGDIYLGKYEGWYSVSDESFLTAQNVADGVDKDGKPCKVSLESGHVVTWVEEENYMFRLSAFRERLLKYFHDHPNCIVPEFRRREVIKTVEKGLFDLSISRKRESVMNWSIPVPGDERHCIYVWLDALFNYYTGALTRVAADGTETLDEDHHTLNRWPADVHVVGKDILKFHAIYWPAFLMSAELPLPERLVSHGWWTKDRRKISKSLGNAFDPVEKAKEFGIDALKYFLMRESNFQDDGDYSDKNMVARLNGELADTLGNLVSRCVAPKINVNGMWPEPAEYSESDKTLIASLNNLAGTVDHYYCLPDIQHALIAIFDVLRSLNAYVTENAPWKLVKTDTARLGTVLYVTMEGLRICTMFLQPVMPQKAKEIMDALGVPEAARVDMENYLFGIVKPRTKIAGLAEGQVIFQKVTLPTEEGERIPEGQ

Results are percentages, as filed. The record does not define 0% and 100%; most values in the screen are far below 50% and negative numbers occur (in some assays of this library far below -100). This is an unselected part of the compounds tested.

| Compound | inhibition |
|---|---|
| `CS(=O)(=O)c1cccc(S(=O)(=O)NC(=O)CC2CCCC2)c1` | 0 |
| `CCc1nnc2n1CCN(C(=O)c1ccc(C)c(S(N)(=O)=O)c1)C2` | 15.01 |
| `Cc1noc([C@@H]2C[C@H](NC(=O)Nc3cccc(F)c3)CN2C)n1` | 1.695 |
| `NC(=O)CCN1CCc2onc(-c3ccccc3F)c2C1` | 14.5 |
| `Cn1cncc1-c1nnc([C@H]2CCN(Cc3cccnc3)C2)o1` | 11.28 |
| `Cc1cccc(CNC2CC(=O)N(CCc3cccc(Cl)c3)C2)n1` (stereo not shown) | 13.5 |
| `CCCN1CCN(C(=O)c2cc[nH]n2)[C@H]2CS(=O)(=O)C[C@H]21` | 11.54 |
| `O=C(C1CC(c2ccccc2)=NO1)N1CCc2ccccc21` (stereo not shown) | -8.123 |
| `Cc1ccc(Cl)cc1N1CCC(CNC(=O)Cn2cccn2)C1` (stereo not shown) | 12.72 |
| `O=C(CCc1ccco1)Nc1cccc(S(=O)(=O)C(F)F)c1` | 12.81 |
| `O=C(COc1coc(CN2CCCC2)cc1=O)Nc1ccc(Cl)c(Cl)c1` | 19.09 |
| `COc1ccccc1NCC(=O)NCc1ccc(-c2ccn[nH]2)cc1` | 11.62 |
| `CN(C)S(=O)(=O)N1CCC2(CCCN(Cc3ccc(F)cc3)C2=O)C1` (stereo not shown) | 12.5 |
| `CC(C)CN1CCC2(CCN(Cc3nccs3)CC2)C1=O` | 8.143 |
| `CCc1csc(C2CCCN(C(=O)c3c[nH]c(C)n3)C2)n1` (stereo not shown) | 11.74 |
| `CN(C)C(=O)c1cccc(CN2CCN(CC(O)C(C)(C)C)CC2)c1` (stereo not shown) | 17.88 |
| `Cc1n[nH]c(C)c1C(N)C(=O)NCCc1csc(C(C)C)n1` (stereo not shown) | 9.851 |
| `CC(=O)N1CCC2(C1)c1ccccc1S(=O)(=O)N2C` (stereo not shown) | 5.464 |
| `CC1CCc2nc(NS(=O)(=O)c3cnn(C)c3)sc2C1` (stereo not shown) | 15.19 |
| `CN(Cc1cccc(C#N)c1)C(=O)C1CC(c2cccc(F)c2)=NO1` (stereo not shown) | 10.45 |
| `Cc1ncc(C(=O)NCCNc2ncnc3sccc23)s1` | 9.712 |
| `CNC(=O)[C@@H]1C[C@H](N)CN1Cc1cc2cc(C)cc(C)c2[nH]c1=O` | 8.193 |
| `COc1ccccc1OCc1cc(C(=O)N2CC=CC2C(C)C)n[nH]1` (stereo not shown) | 18.58 |
| `O=C(N[C@@H]1CCNC[C@H]1O)c1ccc(F)c(Cl)c1` | 17.75 |
| `CCc1noc(C(C)N2CCC(NC(=O)c3ccc(C)s3)CC2)n1` (stereo not shown) | 8.661 |
| `c1cnc(N2C[C@H]3CCN(Cc4ccncc4)C[C@H]3C2)nc1` | 11.14 |
| `CC(C)(C)c1nnc(CN2CCN(S(C)(=O)=O)CC2)o1` | 4.71 |
| `CC(C)CC(NC(=O)c1cc(C2CC2)n[nH]1)c1ncnn1C` (stereo not shown) | 4.467 |
| `Cc1cccc(CN2CCCC3(Cc4ccccc4CNC3=O)C2)n1` (stereo not shown) | 23.43 |
| `O=C(NCc1nncn1C1CC1)c1ccc(F)c(COCC2CC2)c1` | 5.072 |
| `CC(C)CC(c1nc(-c2cnn(C)c2)no1)N1CCCCC1=O` (stereo not shown) | 7.357 |
| `O=C(C1NCCc2[nH]cnc21)N1CCC2(C=Cc3ccccc32)CC1` (stereo not shown) | 10.23 |
| `CC(C)OCCN1CCc2cncnc2C1` | 17.01 |
| `O=C(CCC1CCCC1)N1CCC(c2cc3ncccc3c(O)n2)CC1` | 6.452 |
| `Cc1cccc(N2CCC3(CCCN3Cc3cn(C)nc3C)CC2)n1` | 1.985 |
| `O=C(CN1CCS(=O)(=O)CC1)Nc1ccc(N2CCCC2)nc1` | 8.807 |
| `CCCN(CCC)C(=O)c1sc(C)nc1C` | 18.47 |
| `Cc1ccc(N2CCc3ncc(CNc4ccccn4)n3CC2)nn1` | 18.78 |
| `COCC(=O)N1CCCC(COc2ccccc2C)C1` (stereo not shown) | 13.09 |
| `Cc1ccccc1C1CCN(C(=O)CCNS(C)(=O)=O)C1` (stereo not shown) | 2.978 |
| `Cc1ccc2c(c1)CCC2NCc1c(C)nn(C)c1N1CCOCC1` (stereo not shown) | 23.94 |
| `Cc1noc(CN(C)C(=O)CCn2cnc3ccccc32)n1` | 14.44 |
| `CC(O)CN1CCN(C(=O)c2cc3ccccc3[nH]c2=O)CC1` (stereo not shown) | 16.2 |
| `Cc1ccoc1-c1nnc(CNCCn2cccn2)o1` | 9.859 |
| `CN(C)S(=O)(=O)N1CC[C@H]2OCC[C@@]2(COc2cccnc2)C1` | 8.759 |
| `COc1ccccc1CNC(=O)CNc1ccccc1C(C)=O` | 7.311 |
| `O=C1[C@H]2CN(Cc3ccoc3)C[C@H]2CN1CCN1CCCC1` | 6.162 |
| `Cc1cc(C(=O)N2C[C@@H](CN3CCOCC3)C[C@H](CO)C2)nc(C)n1` | 6.211 |
| `O=C(c1cnn(-c2ccccc2Cl)c1)N1CCN(CCO)CC1` | 15.38 |
| `c1cc2c(cc1CSCc1noc(C3CC3)n1)OCCO2` | -17.48 |
| `Cc1cc(NC(=O)CN2CCn3c(nnc3C(C)C)C2)on1` | 3.093 |
| `Cc1ccc(OC2(C(=O)O)CCN(C/C=C/c3ccco3)CC2)cn1` | 2.135 |
| `FC(F)(F)c1cc(-c2cccs2)nc(N2CCN3CCCC3C2)n1` (stereo not shown) | 12.31 |
| `CCCC(=O)N1CCCC(Cn2cc(-c3ccc(F)cc3)nn2)C1` (stereo not shown) | 16.24 |
| `Cc1nc[nH]c1CN1CCC(CNC(=O)c2cccc3cnccc23)C1` (stereo not shown) | 16.36 |
| `CNC(=O)c1sc(C(NC(=O)c2ccccc2)C2CC2)nc1C` (stereo not shown) | 19.51 |
| `NCCN1C(=O)CC[C@H]2CN(Cc3ccc4occc4c3)CC[C@H]21` | 12.85 |
| `Cc1ccnc(C2CCCN2C(=O)c2cnccn2)n1` (stereo not shown) | 16.83 |
| `O=C(NCc1cccc(N2CC=CC2)c1)NCC(F)(F)F` | 10.12 |
| `COc1ccccc1C1CC(=O)Nc2nc(N3CCCCC3)sc21` (stereo not shown) | 22.66 |
| `CCN(CC)C(=O)[C@@H]1C[C@@H](NC(=O)c2cccc(N(C)C)c2)CN1C` | 4.082 |
| `COc1c(Br)c(CC2CC(CO)=NO2)c(OC)c2c1OCO2` (stereo not shown) | 16.71 |
| `Cc1cc(C(F)(F)F)c2c(C3CCCN(C(=O)C4CC4)C3)noc2n1` (stereo not shown) | 14.24 |
| `C[C@]1(O)CCN(Cc2ncccc2F)C[C@@H]1Oc1ccccc1` | 17.42 |
| `CNC(=O)C1CCCN(C(=O)NCCC2Cc3ccccc3C2)C1` (stereo not shown) | 13.17 |
| `Cc1ccc(CN(C)C(=O)c2cc3c(c(S(N)(=O)=O)c2)CCC3)o1` | 8.108 |
| `COC(=O)[C@@H]1CN(C(=O)c2cscn2)C[C@H]1c1ccc(OC)cc1` | 5.806 |
| `O=C(Cn1ccc(=O)[nH]c1=O)NCC1Cc2ccccc2O1` (stereo not shown) | 11.98 |
| `CNC(=O)c1ccc(CN(C(C)C)C(C)C)o1` | 20.24 |
| `COCCNc1nc(C2CCCC2)nc2c1CCNCC2` | 21.38 |
| `CC(NCc1cc(O)c2cccc(F)c2n1)c1ccccc1O` (stereo not shown) | 6.46 |
| `Cc1nc(C)n(C2CCCN(C(=O)c3ccc4c(c3)COC4)C2)n1` (stereo not shown) | 12.38 |
| `Cc1ncc(C(=O)NC2CCc3nccn3C2)c(C(C)C)n1` (stereo not shown) | 17.13 |
| `CCS(=O)(=O)N1CCc2ccc(NC(=O)Nc3cccc(F)c3)cc21` | 1.69 |
| `CC(C)N1C[C@@H]2CN(C(=O)NCc3ccccc3)CCC[C@]2(C(=O)O)C1` | -10.28 |
| `CCn1cnnc1CNC(=O)NC(C)c1ccc(Cl)s1` (stereo not shown) | 13.25 |
| `CC(=O)N1CCC[C@H]1C(=O)NCCCN(C(C)C)S(C)(=O)=O` | 14.63 |
| `COCC(=O)N1CCN(S(=O)(=O)c2cccs2)[C@H]2CS(=O)(=O)C[C@H]21` | 7.165 |
| `Clc1ccc(C2(NCc3noc(C4CC4)n3)CCC2)cc1` | 11.98 |
| `COc1ccc(OC)c(C2CCN(C3CCOCC3)C2)c1` (stereo not shown) | 5.108 |
| `Cc1ncc2c(n1)CN(CC(=O)Nc1cccnc1)CC2` | 1.955 |
| `CCc1nccn1C1CCCN(C(=O)CCCc2ccccn2)C1` (stereo not shown) | 21.86 |
| `CC(C)(C)OC(=O)NC(C)(C)c1noc(CSc2ccccn2)n1` | 14.34 |

Source: ChEMBL document CHEMBL3988442, “University of Dundee, Small-Polar-MMV Screening Library” (2021).